In all, about 340,000 compounds went through this assay and about 6,200 (1.8%) were called active. The inconclusive results got no clear call from the source; some entries with a clear call stand among them for comparison. Calls follow the shape of the dose curve; as a rule, active = well fitted activation curve with a large enough effect; inconclusive = small, poorly fitted or top-dose-only effect; inactive = no such curve, though single readings can be large or run the other way. Potencies of inconclusive entries are doubtful fits and often do not repeat.
Assay: A quantitative high throughput screen for small molecules that induce DNA re-replication in SW480 colon adenocarcinoma cells. Also: nearly all actives have a fitted effect of over 55% in size.
Settings: Hoechst DNA content imaging, 48 h; series mostly up to 46.1 µM
Outline: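 Quantitative HTS format with DMSO vehicle controls; 48 hr drug incubation at 37 C, then 40 min Hoechst staining and scanning imager measurement at 405 nm excitation.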
For `COc1ccc(OC)c(CNC(=O)COc2cc(=O)n(C)c3ccccc23)c1`, the Potency was “inactive”. With `C=CCNC(=S)N/N=C(\C)c1ccc(OC)cc1` the Potency was inconclusive: 18.4 µM [activator, single point]. With `Cc1cc(C)cc(NC(=O)CSc2nnc(-c3ccccc3Br)o2)c1` the Potency was “inactive”. For `C=CCSc1nnc(NC(=O)CSc2nc(CCC)cc(=O)[nH]2)s1`, the Potency was “inactive”. For `S=C(NCCc1ccccn1)Nc1ccc(Cl)cc1Cl`, the Potency was inconclusive: 29.1 µM [activator, single point]. In the case of `CCC(C(=O)NNC(=O)c1cnccn1)c1ccccc1` (centres undefined), the Potency is reported as inconclusive: 18.4 µM [activator, single point]. In the case of `CCOC(=O)c1cn2nc(SCc3ccccc3)nc2nc1C`, the Potency is reported as “inactive”. For `CCN(CC)CCCN=Cc1c(O)n(-c2ccccc2C)c(=O)c2ccccc12`, the Potency was “inactive”. With `O=C(Nc1nc2ccccc2n1CCOc1ccccc1)c1ccco1` the Potency was inconclusive: 18.4 µM [activator, single point]. With `CCCOC(=O)CCCCCCCCC(O)CN1CCCCC1` (centres undefined) the Potency was “inactive”. With `O=C1N[C@@H](c2ccccc2)COC(=O)[C@@H](Cc2ccc(F)cc2)C/C=C\C[C@H]1CC(=O)N(CCO)Cc1ccccc1` the Potency was inconclusive: 20.6 µM [activator, single point]. For `Cc1cc(S(=O)(=O)Nc2c(C)nn(C)c2C)c(Cl)cc1Cl`, the Potency was inconclusive: 29.1 µM [activator, single point]. For `CCCCN(CC)c1nc(N)c2c(N)nc(OCC)cc2c1C#N`, the Potency was inconclusive: 20.6 µM [activator, single point]. In the case of `CCCCCCCC[n+]1cccc(C(=O)N(CC)CC)c1`, the Potency is reported as inconclusive: 1.3 µM [activator, full curve, poor fit]. For `COc1ccccc1NS(=O)(=O)c1cc(NC(=O)c2sc3cc(Cl)ccc3c2Cl)ccc1C`, the Potency was inconclusive: 1.84 µM [activator, partial curve, poor fit]. For `CCC(OC(=O)C(CC(C)C)NC(=O)c1ccccc1)C(=O)Nc1nnc(C)s1` (centres undefined), the Potency was inconclusive: 0.116 µM [activator, full curve, poor fit]. In the case of `CC1CC(C)(C)N(C(=O)CSc2ccc(-c3ccc(F)cc3)nn2)c2ccccc21` (centres undefined), the Potency is reported as inconclusive: 20.6 µM [activator, single point]. In the case of `Cn1cccc1C1NC(=O)c2c(sc3c2CCC(C(C)(C)C)C3)N1` (centres undefined), the Potency is reported as “inactive”. In the case of `CC(=O)c1ccc(S(=O)(=O)Nc2ccc3c(c2)OCO3)cc1`, the Potency is reported as “inactive”. With `CN(C)S(=O)(=O)c1cccc(NC(=O)CSc2cccc3cccnc23)c1` the Potency was inconclusive: 2.59 µM [activator, full curve]. For `COC(=O)[C@]1(C)N[C@H](c2ccc(-c3ccc(Cl)c(Cl)c3)c(OC)c2)[C@@H]2C(=O)N(C)C(=O)[C@@H]21`, the Potency was inconclusive: 20.6 µM [activator, single point]. For `Nc1ccc2c(C(F)(F)F)cc(=O)oc2c1`, the Potency was inconclusive: 25.9 µM [activator, single point]. In the case of `COC(=O)Cc1ccc(NC(=O)c2ccccc2Cl)cc1`, the Potency is reported as inconclusive: 0.058 µM [activator, full curve, poor fit]. For `O=C(Nc1nc2ccc(F)cc2s1)c1ccccn1`, the Potency was active: 5.17 µM. In the case of `CC[C@]12c3[nH]c4cc(-c5ccco5)ccc4c3CCN1C(=O)[C@@H](CC(=O)NCc1ccco1)C[C@@H]2C(=O)N1CCN(C(=O)c2ccco2)CC1`, the Potency is reported as inconclusive: 5.17 µM [activator, full curve, poor fit]. In the case of `Cc1csc(=O)n1CCC(=O)OCC(=O)c1c(N)n(CC(C)C)c(=O)n(C)c1=O`, the Potency is reported as “inactive”. For `Oc1ccc(-c2csc(Nc3ccccn3)n2)c(O)c1`, the Potency was “inactive”. In the case of `COc1ccc(NS(=O)(=O)c2ccc3c(c2)CCC(=O)N3)cc1O`, the Potency is reported as “inactive”. For `CCOC(=O)C1(CCOc2ccccc2)CCN(Cc2ccc(-n3cccn3)cc2)CC1`, the Potency was inconclusive: 29.1 µM [activator, single point]. In the case of `CCC1(c2ccccc2)NC(=O)N(CC(=O)Nc2cc(Cl)ccc2N2CCN(C)CC2)C1=O` (centres undefined), the Potency is reported as inconclusive: 29.1 µM [activator, single point]. For `CN(C(=O)c1cccc(NC(=O)Cc2cccc(NC(=O)C3CCN(C(=O)C4CC4)CC3)c2)c1)C1CCC1`, the Potency was “inactive”. In the case of `O=C(CC1C(=O)CCCC1=O)c1ccccc1`, the Potency is reported as inconclusive: 29.1 µM [activator, single point]. For `CCCCCCn1cc(C(=O)O)c(=O)c2cc(F)c(N3CCCCC3)cc21`, the Potency was inconclusive: 0.0046 µM [activator, full curve, poor fit]. In the case of `O=C(c1ccc(CSc2nc3ccncc3[nH]2)cc1)N1CCCCCC1`, the Potency is reported as “inactive”. For `CC(C)CN(C(=O)COC(=O)c1cnc(Cl)c(Cl)c1)c1c(N)n(Cc2ccccc2)c(=O)[nH]c1=O`, the Potency was “inactive”. With `Cc1cccc(-c2cc(C(=O)N/N=C/c3cccnc3)c3ccccc3n2)c1` the Potency was inconclusive: 16.4 µM [activator, partial curve, poor fit]. For `Cc1ccc(OCCC(=O)OCC(=O)Nc2c(C)nn(-c3ccccc3)c2C)cc1`, the Potency was inconclusive: 3.66 µM [activator, single point]. For `CCOc1cc(C)c(Cl)cc1S(=O)(=O)NCCOC`, the Potency was “inactive”. With `COc1cc(C(=O)NCC(=O)OCCN2C(=O)c3ccccc3C2=O)cc(OC)c1OC` the Potency was inconclusive: 4.11 µM [activator, full curve, poor fit]. In the case of `Cc1cc(-c2nnc(-c3cc4ccccc4oc3=O)o2)c(C)n1-c1ccccc1`, the Potency is reported as inconclusive: 18.4 µM [activator, single point]. With `CCN(CC)S(=O)(=O)c1ccc2c(c1)oc(=O)n2CC(=O)NC1CCCCC1` the Potency was “inactive”. In the case of `C/[N+]([O-])=C\C1C(=O)CCCC1=O`, the Potency is reported as inconclusive: 14.6 µM [activator, partial curve, poor fit]. With `CCCc1cc(=O)oc2cc(OCC(=O)NCCc3c[nH]c4ccccc34)ccc12` the Potency was “inactive”. With `COc1ccc(-c2cn3c(C)c(C(=O)Nc4ccncc4)sc3n2)cc1` the Potency was inconclusive: 29.1 µM [activator, partial curve, poor fit].
Potency is read from the fitted curve at half-maximal effect.
